# Laboratory results reported in paper PMC5651216, “Structural Basis for a Safety-Belt Mechanism That Anchors Condensin to Chromosomes”.
# How the values were obtained:
# Experiment in all cases: EMSA
# [1] = system: Ct Brn1 336-714 (Chaetomium thermophilum); settings: did not reproduce the distinct upshift; EMSA: 10 mM HEPES-KOH pH 7.5, 125 mM NaCl, 5 mM MgCl2, 1 mM DTT, 30 min, gels at 4 C, 0.2 uM 35-bp or 10 nM 2.1-kb DNA; recombinant protein; protein details: N-terminal GST-HRV3C; label: 5' 6-FAM on strand 1
# [2] = system: Ct Ycg1 24-1006 (Chaetomium thermophilum); settings: did not reproduce the distinct upshift; EMSA: 10 mM HEPES-KOH pH 7.5, 125 mM NaCl, 5 mM MgCl2, 1 mM DTT, 30 min, gels at 4 C, 0.2 uM 35-bp or 10 nM 2.1-kb DNA; recombinant protein; label: 5' 6-FAM on strand 1
# [3] = system: Ct Ycs4 3-1222 (Chaetomium thermophilum); settings: EMSA: 10 mM HEPES-KOH pH 7.5, 125 mM NaCl, 5 mM MgCl2, 1 mM DTT, 30 min, gels at 4 C, 0.2 uM 35-bp or 10 nM 2.1-kb DNA; recombinant protein; label: 5' 6-FAM on strand 1
# [4] = system: Sc Smc2 + Sc Smc4 + Sc Ycs4 + Sc Ycg1 + Sc Brn1; settings: EMSA: 10 mM HEPES-KOH pH 7.5, 125 mM NaCl, 5 mM MgCl2, 1 mM DTT, 30 min, gels at 4 C, 0.2 uM 35-bp or 10 nM 2.1-kb DNA; recombinant protein; protein details: C-terminal StrepII x3,C-terminal His12-HA3; label: 5' 6-FAM on strand 1
sequence,measurement,setting,value
CCTATAGTGAGTCGTTCGATATTACAATTCACTGG (double strand) [35-bp dsDNA],binding result,[1],binds more weakly
same,binding result,[2],binds more weakly
same,binding result,[3],binds more weakly
same,binding result,[4],binds

# Construct, isoform or probe ends are uncertain for at least one entry. For some of these results: A weaker result is weaker than the reference pair of the same experiment. For some of these results: At least one verdict was read from the data and is not stated in words by the source.
